Experimental data from patent US20250034097A1, “MICROBIOCIDAL ISONICOTINIC AMIDE DERIVATIVES” (SYNGENTA CROP PROTECTION AG, priority 2021, published 2025).
Some results were stated once for a whole list of compounds, not compound by compound.

Assays:
Mycosphaerella arachidis = assay: Mycosphaerella arachidis, Cercospora arachidicola (early leaf spot of peanut), growth inhibition in nutrient broth; type: cell-based; details: 20 ppm; PDB broth, 24° C., photometric 4-5 days after application; compared to untreated control
Botryotinia fuckeliana = Botryotinia fuckeliana syn. Botrytis cinerea (gray mould), growth inhibition in nutrient broth; type: cell-based; details: "at ppm" (concentration not given); PDB broth, 24° C., 72 hours, photometric; compared to untreated control
Blumeria graminis = Blumeria graminis (powdery mildew on wheat), wheat leaf segments, preventive; type: in vivo, Blumeria graminis (syn Erysiphe graminis); details: 200 ppm, assessed 6-8 dpi, compared to untreated control

With `COc1cccc(Oc2cnnc(C)c2C(=O)NCC(F)c2ccc(Cl)cc2Cl)c1` (stereo not shown) [Compound 2.13, N-[2-(2,4-dichlorophenyl)-2-fluoro-ethyl]-5-(3-methoxyphenoxy)-3-methyl-pyridazine-4-carboxamide] as the compound, how does the “control of Mycosphaerella arachidis” value (Mycosphaerella arachidis) read?
The value was “at least 80%”.

For `CCc1nncc(Oc2cccc(C3CC3)c2)c1C(=O)NCC(F)c1ccc(Cl)cc1Cl` (stereo not shown) [Compound 2.3, 5-(3-cyclopropylphenoxy)-N-[2-(2,4-dichlorophenyl)-2-fluoro-ethyl]-3-ethyl-pyridazine-4-carboxamide], which “control of Botryotinia fuckeliana” value (Botryotinia fuckeliana) is on record?
Its value is “at least 80%”.

How did the “control of Botryotinia fuckeliana” value (Botryotinia fuckeliana) turn out when `O=C(NCC(F)c1ccc(Cl)cc1Cl)c1c(Oc2cccc(C3CC3)c2)cnnc1O` (stereo not shown) [Compound 2.15, 5-(3-cyclopropylphenoxy)-N-[2-(2,4-dichlorophenyl)-2-fluoro-ethyl]-3-hydroxy-pyridazine-4-carboxamide] was run?
The value was “at least 80%”.

How did the “control of Botryotinia fuckeliana” value (Botryotinia fuckeliana) turn out when `O=C(NCC(F)c1ccc(Cl)cc1Cl)c1c(Oc2cccc(C3CC3)c2)cnnc1C#CC1CC1` (stereo not shown) [Compound 2.6, 3-(2-cyclopropylethynyl)-5-(3-cyclopropylphenoxy)-N-[2-(2,4-dichlorophenyl)-2-fluoro-ethyl]pyridazine-4-carboxamide] was run?
Its value is “at least 80%”.

Which results are given for `Cc1ncc(Oc2cccc(C3CC3)c2)c(C(=O)NCCc2ccc(Cl)cc2Cl)n1` [Compound 1.1, 5-(3-cyclopropylphenoxy)-N-[2-(2,4-dichlorophenyl)ethyl]-2-methyl-pyrimidine-4-carboxamide]?
control of Botryotinia fuckeliana (Botryotinia fuckeliana): at least 80%; control of Blumeria graminis (Blumeria graminis): at least 80%

How did the “control of Botryotinia fuckeliana” value (Botryotinia fuckeliana) turn out when `C=C(C)COc1nncc(Oc2cccc(C3CC3)c2)c1C(=O)NCC(F)c1ccc(Cl)cc1Cl` (stereo not shown) [Compound 2.5, 5-(3-cyclopropylphenoxy)-N-[2-(2,4-dichlorophenyl)-2-fluoro-ethyl]-3-(2-methylallyloxy)pyridazine-4-carboxamide] was run?
The value was “at least 80%”.

With `C=C(C)c1nncc(Oc2cccc(C3CC3)c2)c1C(=O)NCC(F)c1ccc(Cl)cc1Cl` (stereo not shown) [Compound 2.7, 5-(3-cyclopropylphenoxy)-N-[2-(2,4-dichlorophenyl)-2-fluoro-ethyl]-3-isopropenyl-pyridazine-4-carboxamide] as the compound, how does the “control of Mycosphaerella arachidis” value (Mycosphaerella arachidis) read?
Its value is “at least 80%”.

What does the source list for `CC(C)Oc1nncc(Oc2cccc(C3CC3)c2)c1C(=O)NCC(F)c1ccc(Cl)cc1Cl` (stereo not shown) [Compound 2.4, 5-(3-cyclopropylphenoxy)-N-[2-(2,4-dichlorophenyl)-2-fluoro-ethyl]-3-isopropoxy-pyridazine-4-carboxamide]?
control of Botryotinia fuckeliana (Botryotinia fuckeliana): at least 80%; control of Blumeria graminis (Blumeria graminis): at least 80%

For `Cc1nncc(Oc2cccc(C3CC3)c2)c1C(=O)NCC(F)c1ccc(Cl)cc1Cl` (stereo not shown) [Compound 2.1, 5-(3-cyclopropylphenoxy)-N-[2-(2,4-dichlorophenyl)-2-fluoro-ethyl]-3-methyl-pyridazine-4-carboxamide], which “control of Botryotinia fuckeliana” value (Botryotinia fuckeliana) is on record?
Its value is “at least 80%”.

Which “control of Blumeria graminis” value (Blumeria graminis) does the source give for `Cc1ncc(Oc2cccc(C3CC3)c2)c(C(=O)NCC(F)c2ccc(Cl)cc2Cl)n1` (stereo not shown) [Compound 1.2, 5-(3-cyclopropylphenoxy)-N-[2-(2,4-dichlorophenyl)-2-fluoro-ethyl]-2-methyl-pyrimidine-4-carboxamide] here?
The value was “at least 80%”.

With `O=C(NCC(F)c1ccc(Cl)cc1Cl)c1c(Oc2cccc(C3CC3)c2)cnnc1C1CC1` (stereo not shown) [Compound 2.8, 3-cyclopropyl-5-(3-cyclopropylphenoxy)-N-[2-(2,4-dichlorophenyl)-2-fluoro-ethyl]pyridazine-4-carboxamide] as the compound, how does the “control of Botryotinia fuckeliana” value (Botryotinia fuckeliana) read?
Its value is “at least 80%”.

How did the “control of Botryotinia fuckeliana” value (Botryotinia fuckeliana) turn out when `CC(C)c1nncc(Oc2cccc(C3CC3)c2)c1C(=O)NCC(F)c1ccc(Cl)cc1Cl` (stereo not shown) [Compound 2.9, 5-(3-cyclopropylphenoxy)-N-[2-(2,4-dichlorophenyl)-2-fluoro-ethyl]-3-isopropyl-pyridazine-4-carboxamide] was run?
The value was “at least 80%”.

For `O=C(NCC(F)c1ccc(Cl)cc1Cl)c1cnncc1Oc1cccc(C2CC2)c1` (stereo not shown) [Compound 2.10, 5-(3-cyclopropylphenoxy)-N-[2-(2,4-dichlorophenyl)-2-fluoro-ethyl]pyridazine-4-carboxamide], which “control of Botryotinia fuckeliana” value (Botryotinia fuckeliana) is on record?
Its value is “at least 80%”.

For `COc1nncc(Oc2cccc(C3CC3)c2)c1C(=O)NCCc1ccc(Cl)cc1Cl` [Compound 2.12, 5-(3-cyclopropylphenoxy)-N-[2-(2,4-dichlorophenyl)ethyl]-3-methoxy-pyridazine-4-carboxamide], which “control of Botryotinia fuckeliana” value (Botryotinia fuckeliana) is on record?
The value was “at least 80%”.

How did the “control of Botryotinia fuckeliana” value (Botryotinia fuckeliana) turn out when `CC(C)c1nncc(Oc2cccc(C3CC3)c2)c1C(=O)NC[C@H](F)c1ccc(Cl)cc1Cl` [Compound 2.16, 5-(3-cyclopropylphenoxy)-N-[(2R)-2-(2,4-dichlorophenyl)-2-fluoro-ethyl]-3-isopropyl-pyridazine-4-carboxamide] was run?
Its value is “at least 80%”.

And the “control of Mycosphaerella arachidis” value (Mycosphaerella arachidis)?
The value was “at least 80%”.

With `COc1nncc(Oc2cccc(C3CC3)c2)c1C(=O)NCC(F)c1ccc(Cl)cc1Cl` (stereo not shown) [Compound 2.11, 5-(3-cyclopropylphenoxy)-N-[2-(2,4-dichlorophenyl)-2-fluoro-ethyl]-3-methoxy-pyridazine-4-carboxamide] as the compound, how does the “control of Botryotinia fuckeliana” value (Botryotinia fuckeliana) read?
Its value is “at least 80%”.
